Experimental data reported in PMC4957076, “Shared mechanism of teratogenicity of anti-angiogenic drugs identified in the chicken embryo model” (Scientific Reports, 2016).

Tests used:
[1] = tested on: fli1:EGFP zebrafish embryos; assay: fli1:EGFP zebrafish embryo exposure: survival and intersegmental vessel development; assay type: in vivo; details: concentration gradient, within 24 hours of drug exposure
Description: We then examined the extent and nature of the anti-angiogenic effects of the compounds using transgenic fli1:EGFP zebrafish embryos. The vasculature of these fish is tagged with EGFP and the transparency of the zebrafish allows for visualization of the forming blood vessels and any effect of anti-cancer drugs on their development over time (Fig. 4). A known anti-angiogenic and teratogenic compound (CPS49) was screened alongside the drugs as a positive control at 10 μg/mL (30 μM), a previously established anti-angiogenic concentration.
fli1:EGFP zebrafish were obtained from the Zebrafish international Resource Centre[29] and maintained in an approved aquarium habitat at 28 °C. At 24 hours post fertilization (hpf) the embryos were checked for GFP expression using a fluorescent microscope and manually dechorionated with forceps, exposed to either a vehicle control, or an anti-angiogenic anti-cancer compound (at 24 hpf) for 24 hours and imaged at 48 hpf. At this point the embryos were anaesthetized in 0.1% tricaine and the length and number of intersegmental vessels (ISV) were quantified as previously described. A minimum of 10 embryos were screened per drug, per concentration, and experiments were performed in triplicate.

HUVEC cells = assay: Endothelial cell proliferation assay (CCK-8); assay type: cell-based; details: Homo sapiens, 18 hours exposure, CCK-8 assay, n = 9
Description: Anti-angiogenic drugs were screened in a concentration gradient in the HUVEC culture assay. […] Cell proliferation was assessed using a CCK-8 assay (Dojindo). Statistical analysis by two-way Anova. Error represents the standard error of the mean.
HUVEC cells were purchased from ATCC (Manassas, VA) and cultured as previously described. No further authentication was performed. Cells were seeded at 6.5 × 10^4 cells per well in 100 μL of medium per well. Drugs were diluted in prewarmed DMEM. Serial dilutions were performed from 1000–0.1 nM. The cells were left to grow for 18 hours with exposure to vehicle control (DMSO) or drugs. Experiments were done in triplicate each time. Cellular proliferation was assessed using a CCK-8 assay (Dojindo, Rockville, MD). All plates were read at 450 nm.

In the case of `CNC(=O)c1ccccc1Sc1ccc2c(/C=C/c3ccccn3)n[nH]c2c1` [Axitinib, axitinib], the “relative potency in reducing vessel outgrowth” value [1] is reported as “most potent” and the IC50 (HUVEC cells) is reported as < 0.5 nM.
